Here are results for 16 substances from paper PMC3978658.

Sequences of proteins named here, by UniProt entry; tags and fusion partners are left off. A change or cut given only in a name is not applied to a line headed by its entry.
UniProt Q585C6: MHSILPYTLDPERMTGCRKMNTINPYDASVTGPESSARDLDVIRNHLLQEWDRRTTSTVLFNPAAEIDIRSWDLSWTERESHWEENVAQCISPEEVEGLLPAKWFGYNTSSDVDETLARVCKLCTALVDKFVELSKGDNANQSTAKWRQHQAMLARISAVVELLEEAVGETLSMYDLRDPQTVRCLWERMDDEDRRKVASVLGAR
UniProt Q387E7: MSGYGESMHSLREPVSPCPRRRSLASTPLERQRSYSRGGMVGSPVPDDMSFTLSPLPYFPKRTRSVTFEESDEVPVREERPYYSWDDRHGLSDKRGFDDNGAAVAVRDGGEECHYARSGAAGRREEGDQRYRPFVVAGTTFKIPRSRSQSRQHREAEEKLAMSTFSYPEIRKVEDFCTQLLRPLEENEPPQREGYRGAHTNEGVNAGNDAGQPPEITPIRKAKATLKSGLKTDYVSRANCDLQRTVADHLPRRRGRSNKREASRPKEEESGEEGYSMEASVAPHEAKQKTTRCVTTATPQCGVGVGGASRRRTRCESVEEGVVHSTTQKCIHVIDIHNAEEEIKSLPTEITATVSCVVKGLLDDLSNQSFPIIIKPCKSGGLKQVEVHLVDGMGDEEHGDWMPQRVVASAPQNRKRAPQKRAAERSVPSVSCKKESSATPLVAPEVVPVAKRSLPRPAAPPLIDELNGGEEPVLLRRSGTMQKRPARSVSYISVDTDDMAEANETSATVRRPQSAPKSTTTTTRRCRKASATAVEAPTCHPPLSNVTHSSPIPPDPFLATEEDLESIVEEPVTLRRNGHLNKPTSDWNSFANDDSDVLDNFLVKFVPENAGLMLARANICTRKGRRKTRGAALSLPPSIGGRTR
UniProt Q584J5: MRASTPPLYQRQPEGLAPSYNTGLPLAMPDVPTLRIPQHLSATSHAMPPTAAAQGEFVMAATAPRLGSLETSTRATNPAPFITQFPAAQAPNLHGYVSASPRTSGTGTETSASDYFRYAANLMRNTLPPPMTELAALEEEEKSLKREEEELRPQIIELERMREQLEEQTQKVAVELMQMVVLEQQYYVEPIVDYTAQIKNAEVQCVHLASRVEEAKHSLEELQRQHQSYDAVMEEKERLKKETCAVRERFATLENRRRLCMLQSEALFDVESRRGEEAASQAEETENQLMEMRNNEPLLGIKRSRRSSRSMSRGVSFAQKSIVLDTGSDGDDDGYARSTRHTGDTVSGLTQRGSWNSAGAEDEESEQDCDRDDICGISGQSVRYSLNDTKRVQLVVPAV
UniProt Q57VN9: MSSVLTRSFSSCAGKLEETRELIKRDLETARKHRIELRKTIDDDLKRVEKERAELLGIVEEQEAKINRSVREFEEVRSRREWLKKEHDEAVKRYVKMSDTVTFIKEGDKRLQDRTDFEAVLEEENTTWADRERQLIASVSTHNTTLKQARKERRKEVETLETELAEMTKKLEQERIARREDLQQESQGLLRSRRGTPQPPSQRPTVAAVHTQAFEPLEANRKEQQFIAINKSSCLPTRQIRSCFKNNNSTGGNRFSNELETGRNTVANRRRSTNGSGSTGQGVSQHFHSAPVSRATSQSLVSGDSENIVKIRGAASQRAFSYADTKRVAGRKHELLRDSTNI
UniProt Q382U0: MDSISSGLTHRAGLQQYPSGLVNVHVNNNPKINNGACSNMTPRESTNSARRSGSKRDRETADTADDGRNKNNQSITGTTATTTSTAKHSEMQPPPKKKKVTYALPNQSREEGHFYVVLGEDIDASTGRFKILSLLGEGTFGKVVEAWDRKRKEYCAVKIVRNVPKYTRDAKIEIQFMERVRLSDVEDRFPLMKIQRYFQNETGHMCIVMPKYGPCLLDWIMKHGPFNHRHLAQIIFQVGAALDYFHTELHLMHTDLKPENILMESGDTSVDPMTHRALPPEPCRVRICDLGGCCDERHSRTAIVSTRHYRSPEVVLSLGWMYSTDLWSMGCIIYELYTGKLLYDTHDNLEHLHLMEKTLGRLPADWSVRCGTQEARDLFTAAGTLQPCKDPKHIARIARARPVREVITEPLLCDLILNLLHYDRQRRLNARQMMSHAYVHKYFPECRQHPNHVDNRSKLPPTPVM
UniProt Q57V00: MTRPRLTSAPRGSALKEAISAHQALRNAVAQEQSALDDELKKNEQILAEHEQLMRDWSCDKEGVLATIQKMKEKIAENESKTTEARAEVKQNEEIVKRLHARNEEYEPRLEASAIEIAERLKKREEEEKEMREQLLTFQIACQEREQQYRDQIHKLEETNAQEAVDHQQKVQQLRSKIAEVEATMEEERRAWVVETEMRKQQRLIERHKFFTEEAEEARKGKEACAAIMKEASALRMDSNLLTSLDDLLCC
UniProt Q38AN9: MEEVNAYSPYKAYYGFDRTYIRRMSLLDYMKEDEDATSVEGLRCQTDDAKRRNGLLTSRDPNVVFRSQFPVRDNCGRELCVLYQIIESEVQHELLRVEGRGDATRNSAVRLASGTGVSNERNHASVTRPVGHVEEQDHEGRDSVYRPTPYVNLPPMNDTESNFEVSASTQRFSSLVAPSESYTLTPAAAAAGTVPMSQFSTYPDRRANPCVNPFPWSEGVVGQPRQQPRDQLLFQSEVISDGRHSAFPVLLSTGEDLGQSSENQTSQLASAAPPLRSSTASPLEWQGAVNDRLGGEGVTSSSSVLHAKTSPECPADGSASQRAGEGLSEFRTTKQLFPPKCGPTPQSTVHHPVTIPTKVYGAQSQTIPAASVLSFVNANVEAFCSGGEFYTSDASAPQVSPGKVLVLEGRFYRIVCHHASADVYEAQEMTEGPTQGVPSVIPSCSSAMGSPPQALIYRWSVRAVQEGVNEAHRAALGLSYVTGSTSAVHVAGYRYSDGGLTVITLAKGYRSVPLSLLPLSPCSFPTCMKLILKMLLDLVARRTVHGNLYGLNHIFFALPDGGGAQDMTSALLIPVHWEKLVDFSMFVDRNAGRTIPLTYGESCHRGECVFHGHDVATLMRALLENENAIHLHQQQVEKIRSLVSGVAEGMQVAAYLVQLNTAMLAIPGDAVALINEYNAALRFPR
UniProt Q387F0: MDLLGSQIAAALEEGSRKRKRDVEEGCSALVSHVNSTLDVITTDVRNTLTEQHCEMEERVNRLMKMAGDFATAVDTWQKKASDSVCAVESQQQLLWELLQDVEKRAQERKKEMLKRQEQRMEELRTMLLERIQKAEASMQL
UniProt Q582U6: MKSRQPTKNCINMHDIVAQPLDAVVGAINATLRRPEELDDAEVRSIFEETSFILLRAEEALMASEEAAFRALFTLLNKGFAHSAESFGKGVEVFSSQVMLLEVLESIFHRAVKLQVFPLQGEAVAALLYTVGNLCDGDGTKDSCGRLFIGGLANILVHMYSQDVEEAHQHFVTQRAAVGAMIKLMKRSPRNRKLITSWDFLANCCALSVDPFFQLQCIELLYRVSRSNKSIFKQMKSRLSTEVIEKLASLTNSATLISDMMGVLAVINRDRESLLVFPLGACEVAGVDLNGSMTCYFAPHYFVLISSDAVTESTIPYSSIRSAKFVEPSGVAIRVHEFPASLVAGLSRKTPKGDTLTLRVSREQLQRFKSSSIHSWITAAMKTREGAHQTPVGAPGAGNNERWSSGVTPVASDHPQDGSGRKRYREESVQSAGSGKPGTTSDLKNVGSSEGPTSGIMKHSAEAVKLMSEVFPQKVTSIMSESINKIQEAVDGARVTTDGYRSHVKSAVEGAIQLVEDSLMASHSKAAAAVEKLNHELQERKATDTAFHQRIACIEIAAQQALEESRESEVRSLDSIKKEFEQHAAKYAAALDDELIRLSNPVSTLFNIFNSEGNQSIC
UniProt Q580F6: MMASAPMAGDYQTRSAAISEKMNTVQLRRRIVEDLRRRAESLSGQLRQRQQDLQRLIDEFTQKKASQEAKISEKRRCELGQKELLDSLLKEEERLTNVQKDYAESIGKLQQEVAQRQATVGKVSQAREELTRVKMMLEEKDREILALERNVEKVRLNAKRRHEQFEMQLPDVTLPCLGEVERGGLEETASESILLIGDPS
UniProt Q585X4: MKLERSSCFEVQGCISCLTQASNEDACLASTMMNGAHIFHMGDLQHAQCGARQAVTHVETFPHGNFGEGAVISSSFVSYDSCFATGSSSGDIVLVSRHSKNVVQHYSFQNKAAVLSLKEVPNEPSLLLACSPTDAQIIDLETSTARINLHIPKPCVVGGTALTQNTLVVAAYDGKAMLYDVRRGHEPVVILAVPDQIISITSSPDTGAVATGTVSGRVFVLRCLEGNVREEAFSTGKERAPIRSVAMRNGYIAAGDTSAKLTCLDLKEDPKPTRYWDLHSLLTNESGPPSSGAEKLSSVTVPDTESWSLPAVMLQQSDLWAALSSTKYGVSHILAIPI
UniProt Q38FF3: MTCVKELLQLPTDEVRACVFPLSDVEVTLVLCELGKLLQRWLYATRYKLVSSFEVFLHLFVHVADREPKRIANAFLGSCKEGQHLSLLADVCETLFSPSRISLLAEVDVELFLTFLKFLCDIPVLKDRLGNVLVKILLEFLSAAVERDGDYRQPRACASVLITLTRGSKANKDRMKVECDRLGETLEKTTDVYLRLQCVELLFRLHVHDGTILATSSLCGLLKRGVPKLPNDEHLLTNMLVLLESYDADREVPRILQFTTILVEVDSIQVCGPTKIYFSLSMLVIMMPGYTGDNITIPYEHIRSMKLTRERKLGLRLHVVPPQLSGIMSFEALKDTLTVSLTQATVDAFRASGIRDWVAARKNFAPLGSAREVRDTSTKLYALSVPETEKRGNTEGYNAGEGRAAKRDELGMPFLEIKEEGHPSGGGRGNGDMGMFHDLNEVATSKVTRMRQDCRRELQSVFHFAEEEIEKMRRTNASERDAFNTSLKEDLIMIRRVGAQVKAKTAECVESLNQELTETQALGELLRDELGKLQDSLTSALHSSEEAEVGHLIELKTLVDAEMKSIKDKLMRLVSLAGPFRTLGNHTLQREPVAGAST
UniProt Q382T9: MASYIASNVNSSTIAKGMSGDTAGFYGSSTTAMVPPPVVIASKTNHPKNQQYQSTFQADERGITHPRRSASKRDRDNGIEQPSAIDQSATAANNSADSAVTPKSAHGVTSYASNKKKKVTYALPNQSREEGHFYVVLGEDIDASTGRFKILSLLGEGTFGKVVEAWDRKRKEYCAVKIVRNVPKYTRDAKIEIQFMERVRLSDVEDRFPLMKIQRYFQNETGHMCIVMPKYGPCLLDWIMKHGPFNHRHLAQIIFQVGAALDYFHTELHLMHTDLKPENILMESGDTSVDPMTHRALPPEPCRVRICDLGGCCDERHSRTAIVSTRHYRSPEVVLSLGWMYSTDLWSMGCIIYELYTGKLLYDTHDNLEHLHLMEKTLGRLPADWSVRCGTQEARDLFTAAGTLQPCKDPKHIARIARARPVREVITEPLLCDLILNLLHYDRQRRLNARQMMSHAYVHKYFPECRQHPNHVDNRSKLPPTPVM

Among the targets are KKT6 (T. brucei) (UniProt Q585C6); KKT7 (T. brucei) (UniProt Q387E7); KKT8 (T. brucei) (UniProt Q584J5); KKT9 (T. brucei) (UniProt Q57VN9); KKT10 (T. brucei) (UniProt Q382U0); KKT11 (T. brucei) (UniProt Q57V00); KKT14 (T. brucei) (UniProt Q38AN9); KKT16 (T. brucei) (UniProt Q387F0); KKT17 (T. brucei) (UniProt Q582U6); KKT12 (T. brucei) (UniProt Q580F6).
Assay in all cases: affinity purification with mass spectrometry; YFP-tagged KKT protein immunoprecipitated with mouse monoclonal anti-GFP antibodies cross-linked to Protein-G magnetic beads from sonicated extract of the NP-40-insoluble fraction of asynchronous T. brucei procyclic cells; modified BH/0.15 (25 mM HEPES pH 8.0, 150 mM KCl, 1% NP-40, 15% glycerol), 3 hr, on ice; eluted with 0.1% Rapigest; copurifying proteins identified by LC-MS/MS (at least two peptides)

The target of test [1] is KKT1 (kinetoplastid kinetochore protein 1) (T. brucei) (UniProt Q38AX3).

Results are given in words; binding and its absence hold for the method and conditions named. In cells and extracts the contact can be indirect. A yes stands for co-enrichment or nearness to the bait. Other partners may have been found.

For the substance KKT2 (from UniProt Q383M7), the binding entry in [1] is “binds”.
Turning to KKT3 (from UniProt Q38DT1), the binding result in [1] is recorded as “binds”.
KKT4 (from UniProt Q580Y8): in test [1], the binding entry is given as “binds”.
Still for that read-out and setting: the same measure for KKT5 (from UniProt Q57XA1): “binds”; for KKT6 (from UniProt Q585C6): “binds”.
Consider KKT7 (from UniProt Q387E7), for which the binding entry (with KKT6 (T. brucei); in [1]) was “binds” in each case.
For the substance KKT8 (from UniProt Q584J5), the binding entry (with KKT6 (T. brucei); in test [1]; in the test with KKT7 (T. brucei)) was “binds” each time.
As to KKT9 (from UniProt Q57VN9), the binding result (with KKT8 (T. brucei); in the test with KKT6 (T. brucei); in test [1]; with KKT7 (T. brucei)) was “binds” throughout.
KKT10 (from UniProt Q382U0): the binding result (in the test with KKT8 (T. brucei); with KKT6 (T. brucei); in the test with KKT9 (T. brucei); in test [1]; with KKT7 (T. brucei)) was “binds” throughout.
As for KKT11 (from UniProt Q57V00), the binding entry (with KKT8 (T. brucei); with KKT6 (T. brucei); with KKT9 (T. brucei); in [1]; in the test with KKT10 (T. brucei); with KKT7 (T. brucei)) was “binds” throughout.
With KKT12 (from UniProt Q580F6), the binding result (in the test with KKT8 (T. brucei); with KKT6 (T. brucei); with KKT9 (T. brucei); in test [1]; with KKT11 (T. brucei); with KKT10 (T. brucei)) was “binds” in each case. Further, the binding entry with KKT7 (T. brucei) is given as “binds”.
As for KKT13 (from UniProt Q57XA2), in test [1], the binding result is given as “binds”.
In the case of KKT15 (from UniProt Q585X4), in the test with KKT14 (T. brucei), the binding result is given as “binds”.
Take KKT17 (from UniProt Q582U6): the binding result with KKT16 (T. brucei) is listed as “binds”.
Take KKT18 (from UniProt Q38FF3): the binding result in the test with KKT17 (T. brucei) and with KKT16 (T. brucei) was “binds” in each case.
KKT19 (from UniProt Q382T9): the binding entry in the test with KKT8 (T. brucei), with KKT6 (T. brucei), with KKT9 (T. brucei), with KKT11 (T. brucei), in the test with KKT12 (T. brucei) and in the test with KKT10 (T. brucei) was “binds” throughout. Also, in the test with KKT7 (T. brucei), the binding result is reported as “binds”.
